US20210169980A1
No constants are given. Whether binding was seen depends on the method and setting. Some binding calls cover weakened binding; strength is not graded here.

Chains of the proteins cited; added tags and fusions are not shown.
UniProt O95166: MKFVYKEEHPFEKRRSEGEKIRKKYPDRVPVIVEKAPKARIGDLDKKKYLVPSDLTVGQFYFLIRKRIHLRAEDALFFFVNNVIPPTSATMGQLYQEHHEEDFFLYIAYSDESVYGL

Target: GABARAP (human) (UniProt O95166)
Experiment: ITC

Binder: EGDDFELLDQSELDQIESELGLTQDQ [human FAM134B LIR with the C-helix extension (LIR-L, aa 448-469)]
- binding: binds
